Results are given in words; binding and its absence hold for the method and conditions named.
Target: LAT1–CD98hc heteromeric amino-acid transporter complex (not stated | human (endogenous in HEK293SG)) (UniProt Q01650+P08195)
Experiment: cryo-EM structure; single-particle cryo-EM of detergent-solubilized (DDM/CHS/LMNG) LAT1–CD98hc purified by anti-V5 immunoaffinity and Superdex 200 in 100 mM Tris-HCl, 300 mM NaCl; grids at 2.3 mg/ml, Volta phase plate; ~12 Å map; two-body multibody refinement; both purified

Protein sequences, listed by entry. Tags and fused reporters are not part of them. Lines headed by an entry give the natural chain unless they say otherwise; changes in a name come on top.
UniProt Q01650: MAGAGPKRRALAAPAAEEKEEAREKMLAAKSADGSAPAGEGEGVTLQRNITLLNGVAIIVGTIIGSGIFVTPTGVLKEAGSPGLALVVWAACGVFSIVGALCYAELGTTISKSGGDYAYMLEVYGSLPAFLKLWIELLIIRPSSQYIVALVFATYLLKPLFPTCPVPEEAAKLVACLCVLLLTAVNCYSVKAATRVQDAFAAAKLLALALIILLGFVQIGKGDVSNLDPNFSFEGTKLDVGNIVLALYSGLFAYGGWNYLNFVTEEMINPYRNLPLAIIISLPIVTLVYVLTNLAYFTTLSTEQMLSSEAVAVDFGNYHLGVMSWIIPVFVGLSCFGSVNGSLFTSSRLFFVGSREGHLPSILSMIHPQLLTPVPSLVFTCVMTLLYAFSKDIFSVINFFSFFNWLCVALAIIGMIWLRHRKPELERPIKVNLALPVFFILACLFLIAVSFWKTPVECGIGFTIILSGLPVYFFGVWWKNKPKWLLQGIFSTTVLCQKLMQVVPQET
UniProt P08195: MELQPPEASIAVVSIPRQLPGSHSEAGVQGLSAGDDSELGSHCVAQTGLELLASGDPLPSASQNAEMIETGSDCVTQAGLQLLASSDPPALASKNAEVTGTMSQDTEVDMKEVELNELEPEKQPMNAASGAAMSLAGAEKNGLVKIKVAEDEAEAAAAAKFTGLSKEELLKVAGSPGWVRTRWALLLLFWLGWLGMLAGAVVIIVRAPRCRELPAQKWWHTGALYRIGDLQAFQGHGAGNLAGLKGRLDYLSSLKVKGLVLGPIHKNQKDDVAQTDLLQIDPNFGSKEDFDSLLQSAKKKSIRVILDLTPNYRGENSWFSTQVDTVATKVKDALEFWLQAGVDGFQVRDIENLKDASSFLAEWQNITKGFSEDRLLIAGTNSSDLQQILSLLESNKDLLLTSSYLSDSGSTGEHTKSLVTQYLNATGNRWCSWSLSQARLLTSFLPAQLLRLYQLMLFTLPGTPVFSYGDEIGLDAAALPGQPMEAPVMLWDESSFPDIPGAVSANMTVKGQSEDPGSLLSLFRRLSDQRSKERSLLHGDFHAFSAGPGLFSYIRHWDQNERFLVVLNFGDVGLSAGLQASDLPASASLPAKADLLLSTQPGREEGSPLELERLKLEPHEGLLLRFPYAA

binding: no binding
Substance: LAT1–CD98hc heteromeric amino-acid transporter complex (from UniProt Q01650 1-507; P08195 1-529)
